Results: the supplement of paper PMC10849652
The other results are listed elsewhere or left out.

Amino acid sequences for entries named in this document (tags omitted). A change or cut given only in a name is not applied to a line headed by its entry.
UniProt Q8N9R8: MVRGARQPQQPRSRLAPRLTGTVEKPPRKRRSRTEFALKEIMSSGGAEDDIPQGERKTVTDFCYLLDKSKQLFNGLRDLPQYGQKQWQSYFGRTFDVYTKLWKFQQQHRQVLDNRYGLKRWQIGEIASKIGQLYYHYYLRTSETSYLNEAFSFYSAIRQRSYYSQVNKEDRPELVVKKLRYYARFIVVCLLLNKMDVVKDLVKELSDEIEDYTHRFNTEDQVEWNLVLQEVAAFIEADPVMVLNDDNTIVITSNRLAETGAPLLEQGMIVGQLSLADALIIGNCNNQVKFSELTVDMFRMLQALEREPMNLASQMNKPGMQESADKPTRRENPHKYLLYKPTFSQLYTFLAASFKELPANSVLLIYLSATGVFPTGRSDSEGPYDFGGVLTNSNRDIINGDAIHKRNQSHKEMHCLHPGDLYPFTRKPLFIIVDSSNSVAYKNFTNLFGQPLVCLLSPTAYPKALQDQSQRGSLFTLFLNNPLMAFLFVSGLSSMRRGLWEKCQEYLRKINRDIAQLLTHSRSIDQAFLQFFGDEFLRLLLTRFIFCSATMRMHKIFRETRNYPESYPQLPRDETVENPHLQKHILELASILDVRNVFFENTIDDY
UniProt Q6SPF0: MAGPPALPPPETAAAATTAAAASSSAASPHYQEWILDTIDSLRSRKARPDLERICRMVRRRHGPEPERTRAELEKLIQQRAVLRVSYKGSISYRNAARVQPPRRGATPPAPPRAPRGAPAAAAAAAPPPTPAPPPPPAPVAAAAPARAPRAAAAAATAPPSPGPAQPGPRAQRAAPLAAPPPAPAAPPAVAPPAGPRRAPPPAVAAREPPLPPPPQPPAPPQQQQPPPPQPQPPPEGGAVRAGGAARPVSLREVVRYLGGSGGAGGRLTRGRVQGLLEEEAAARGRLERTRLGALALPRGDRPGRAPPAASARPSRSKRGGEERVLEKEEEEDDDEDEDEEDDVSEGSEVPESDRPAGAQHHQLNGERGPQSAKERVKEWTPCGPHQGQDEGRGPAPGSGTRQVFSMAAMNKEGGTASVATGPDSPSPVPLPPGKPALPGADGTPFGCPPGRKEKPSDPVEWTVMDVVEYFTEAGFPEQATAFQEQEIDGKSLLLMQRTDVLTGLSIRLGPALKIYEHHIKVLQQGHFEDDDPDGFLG
UniProt Q9BQF6: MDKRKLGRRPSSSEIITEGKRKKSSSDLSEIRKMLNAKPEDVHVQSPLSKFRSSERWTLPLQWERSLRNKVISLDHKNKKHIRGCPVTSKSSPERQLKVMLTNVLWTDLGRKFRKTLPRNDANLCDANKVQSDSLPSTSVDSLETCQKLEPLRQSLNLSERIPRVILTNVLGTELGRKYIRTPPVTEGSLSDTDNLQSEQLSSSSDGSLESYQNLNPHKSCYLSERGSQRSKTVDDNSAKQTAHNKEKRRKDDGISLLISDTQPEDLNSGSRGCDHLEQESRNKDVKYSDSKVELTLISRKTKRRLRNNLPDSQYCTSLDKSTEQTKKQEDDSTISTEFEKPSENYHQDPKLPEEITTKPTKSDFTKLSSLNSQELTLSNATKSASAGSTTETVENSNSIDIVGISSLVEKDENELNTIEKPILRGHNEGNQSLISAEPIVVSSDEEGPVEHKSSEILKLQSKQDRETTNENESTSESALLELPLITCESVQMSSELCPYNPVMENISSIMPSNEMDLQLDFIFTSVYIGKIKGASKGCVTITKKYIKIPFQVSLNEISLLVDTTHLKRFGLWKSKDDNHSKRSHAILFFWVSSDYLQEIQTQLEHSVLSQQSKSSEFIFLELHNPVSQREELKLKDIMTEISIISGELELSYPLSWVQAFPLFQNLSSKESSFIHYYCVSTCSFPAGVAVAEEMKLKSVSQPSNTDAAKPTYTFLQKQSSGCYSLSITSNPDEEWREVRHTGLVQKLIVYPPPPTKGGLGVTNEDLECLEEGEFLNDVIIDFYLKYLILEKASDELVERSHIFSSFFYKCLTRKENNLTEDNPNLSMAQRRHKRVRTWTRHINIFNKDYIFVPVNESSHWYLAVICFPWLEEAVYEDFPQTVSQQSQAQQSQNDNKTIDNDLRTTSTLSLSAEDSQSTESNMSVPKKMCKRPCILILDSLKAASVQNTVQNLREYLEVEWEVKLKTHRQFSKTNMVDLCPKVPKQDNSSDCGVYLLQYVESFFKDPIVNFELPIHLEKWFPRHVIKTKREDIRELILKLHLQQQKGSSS
UniProt Q5K651: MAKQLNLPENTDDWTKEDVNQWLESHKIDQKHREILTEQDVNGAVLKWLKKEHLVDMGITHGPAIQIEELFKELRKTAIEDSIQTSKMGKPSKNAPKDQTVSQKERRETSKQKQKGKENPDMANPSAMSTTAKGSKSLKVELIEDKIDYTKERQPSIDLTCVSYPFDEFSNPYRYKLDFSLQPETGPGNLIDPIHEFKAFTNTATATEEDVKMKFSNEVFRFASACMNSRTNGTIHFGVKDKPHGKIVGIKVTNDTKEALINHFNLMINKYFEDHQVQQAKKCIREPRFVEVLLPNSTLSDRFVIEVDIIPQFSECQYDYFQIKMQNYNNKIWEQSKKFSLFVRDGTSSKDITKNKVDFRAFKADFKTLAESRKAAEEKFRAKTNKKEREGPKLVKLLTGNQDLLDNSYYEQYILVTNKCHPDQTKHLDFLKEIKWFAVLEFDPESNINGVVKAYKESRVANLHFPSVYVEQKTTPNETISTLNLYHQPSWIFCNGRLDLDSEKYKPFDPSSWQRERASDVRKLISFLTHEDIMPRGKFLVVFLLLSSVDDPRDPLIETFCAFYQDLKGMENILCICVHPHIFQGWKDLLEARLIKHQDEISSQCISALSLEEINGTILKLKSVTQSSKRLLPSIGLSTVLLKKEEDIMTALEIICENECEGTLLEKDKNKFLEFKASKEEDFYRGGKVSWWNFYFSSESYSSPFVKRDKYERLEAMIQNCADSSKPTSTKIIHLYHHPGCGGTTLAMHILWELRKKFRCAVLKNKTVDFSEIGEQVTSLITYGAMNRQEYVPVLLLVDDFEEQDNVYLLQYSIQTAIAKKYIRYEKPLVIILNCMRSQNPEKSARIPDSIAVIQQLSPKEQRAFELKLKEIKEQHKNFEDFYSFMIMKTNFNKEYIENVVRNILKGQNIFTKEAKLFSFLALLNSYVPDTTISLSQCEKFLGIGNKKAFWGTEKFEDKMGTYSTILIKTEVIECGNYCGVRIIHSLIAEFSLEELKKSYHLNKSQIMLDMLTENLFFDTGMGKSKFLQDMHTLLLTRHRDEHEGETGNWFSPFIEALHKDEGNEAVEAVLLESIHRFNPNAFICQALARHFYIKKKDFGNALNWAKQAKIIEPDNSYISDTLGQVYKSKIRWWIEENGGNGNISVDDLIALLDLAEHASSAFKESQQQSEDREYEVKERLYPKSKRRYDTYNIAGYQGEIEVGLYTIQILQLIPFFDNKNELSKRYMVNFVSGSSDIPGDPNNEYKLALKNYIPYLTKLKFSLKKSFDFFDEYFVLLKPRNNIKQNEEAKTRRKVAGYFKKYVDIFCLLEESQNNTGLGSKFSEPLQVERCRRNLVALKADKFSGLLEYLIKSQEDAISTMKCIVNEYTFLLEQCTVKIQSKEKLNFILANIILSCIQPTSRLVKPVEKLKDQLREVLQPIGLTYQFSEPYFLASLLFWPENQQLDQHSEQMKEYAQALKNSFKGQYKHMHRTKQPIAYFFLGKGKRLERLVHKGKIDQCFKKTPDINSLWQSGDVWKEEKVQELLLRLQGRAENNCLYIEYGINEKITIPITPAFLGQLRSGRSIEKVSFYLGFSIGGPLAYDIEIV
UniProt Q9NXZ1: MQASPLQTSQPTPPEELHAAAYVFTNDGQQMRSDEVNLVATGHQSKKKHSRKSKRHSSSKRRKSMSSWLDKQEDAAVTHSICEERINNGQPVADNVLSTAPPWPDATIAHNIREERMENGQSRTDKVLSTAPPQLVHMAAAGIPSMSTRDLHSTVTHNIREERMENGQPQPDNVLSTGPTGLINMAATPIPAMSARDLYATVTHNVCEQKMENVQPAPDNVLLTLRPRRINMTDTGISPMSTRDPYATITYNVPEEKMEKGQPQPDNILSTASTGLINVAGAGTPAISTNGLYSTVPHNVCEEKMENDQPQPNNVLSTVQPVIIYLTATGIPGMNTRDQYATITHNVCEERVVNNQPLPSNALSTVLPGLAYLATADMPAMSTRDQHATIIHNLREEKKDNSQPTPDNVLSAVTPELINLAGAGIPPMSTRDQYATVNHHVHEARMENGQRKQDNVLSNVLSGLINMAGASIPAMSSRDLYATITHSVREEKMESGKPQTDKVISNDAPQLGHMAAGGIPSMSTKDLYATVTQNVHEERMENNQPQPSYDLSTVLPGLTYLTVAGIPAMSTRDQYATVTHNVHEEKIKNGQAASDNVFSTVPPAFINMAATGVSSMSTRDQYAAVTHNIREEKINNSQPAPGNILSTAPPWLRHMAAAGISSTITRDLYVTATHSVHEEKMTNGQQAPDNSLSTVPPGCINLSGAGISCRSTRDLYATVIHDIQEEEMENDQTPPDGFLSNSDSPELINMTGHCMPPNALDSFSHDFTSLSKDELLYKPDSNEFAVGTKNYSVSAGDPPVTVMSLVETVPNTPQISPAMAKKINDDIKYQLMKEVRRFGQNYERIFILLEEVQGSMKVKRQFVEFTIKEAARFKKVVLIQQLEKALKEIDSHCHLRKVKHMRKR
UniProt Q9BWG6: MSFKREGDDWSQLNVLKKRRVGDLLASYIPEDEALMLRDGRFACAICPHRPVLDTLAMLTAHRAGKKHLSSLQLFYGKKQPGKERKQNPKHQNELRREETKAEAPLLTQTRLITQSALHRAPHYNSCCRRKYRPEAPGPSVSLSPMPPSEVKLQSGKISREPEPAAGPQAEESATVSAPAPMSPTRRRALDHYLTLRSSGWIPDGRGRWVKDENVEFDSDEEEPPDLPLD
UniProt Q96T21: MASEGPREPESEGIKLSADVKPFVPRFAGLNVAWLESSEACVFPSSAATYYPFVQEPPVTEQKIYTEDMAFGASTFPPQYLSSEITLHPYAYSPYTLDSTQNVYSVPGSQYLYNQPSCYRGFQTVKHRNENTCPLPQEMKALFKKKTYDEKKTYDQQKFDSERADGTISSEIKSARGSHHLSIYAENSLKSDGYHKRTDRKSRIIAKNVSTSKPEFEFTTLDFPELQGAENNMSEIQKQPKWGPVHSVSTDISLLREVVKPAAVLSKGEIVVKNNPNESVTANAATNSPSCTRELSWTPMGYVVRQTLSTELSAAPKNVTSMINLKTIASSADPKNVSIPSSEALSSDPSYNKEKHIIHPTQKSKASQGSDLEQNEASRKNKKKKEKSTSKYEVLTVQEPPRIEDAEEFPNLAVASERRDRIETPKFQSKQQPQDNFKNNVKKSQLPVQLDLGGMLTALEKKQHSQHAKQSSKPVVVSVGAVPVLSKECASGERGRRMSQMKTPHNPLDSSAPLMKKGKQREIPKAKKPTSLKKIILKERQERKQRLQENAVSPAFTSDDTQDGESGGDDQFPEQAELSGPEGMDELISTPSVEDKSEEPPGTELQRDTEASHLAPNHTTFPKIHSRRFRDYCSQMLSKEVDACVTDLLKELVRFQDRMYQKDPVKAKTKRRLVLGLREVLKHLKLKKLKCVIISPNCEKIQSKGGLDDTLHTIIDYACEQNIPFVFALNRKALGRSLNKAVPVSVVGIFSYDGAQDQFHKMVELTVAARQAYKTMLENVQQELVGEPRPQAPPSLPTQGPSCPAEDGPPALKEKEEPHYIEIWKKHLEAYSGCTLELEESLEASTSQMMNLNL
UniProt O00560: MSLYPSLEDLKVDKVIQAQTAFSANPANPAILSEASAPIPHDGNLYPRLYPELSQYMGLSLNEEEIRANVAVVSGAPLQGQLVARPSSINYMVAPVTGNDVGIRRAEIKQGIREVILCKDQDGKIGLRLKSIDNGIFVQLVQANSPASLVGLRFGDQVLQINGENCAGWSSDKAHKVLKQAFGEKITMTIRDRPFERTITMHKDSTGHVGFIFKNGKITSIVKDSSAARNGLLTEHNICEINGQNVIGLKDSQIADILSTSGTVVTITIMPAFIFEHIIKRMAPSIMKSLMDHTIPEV
UniProt P63302, whole entry, looked up: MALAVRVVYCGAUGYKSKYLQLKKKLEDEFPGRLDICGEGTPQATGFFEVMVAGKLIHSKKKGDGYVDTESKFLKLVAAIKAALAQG
UniProt Q96IW7: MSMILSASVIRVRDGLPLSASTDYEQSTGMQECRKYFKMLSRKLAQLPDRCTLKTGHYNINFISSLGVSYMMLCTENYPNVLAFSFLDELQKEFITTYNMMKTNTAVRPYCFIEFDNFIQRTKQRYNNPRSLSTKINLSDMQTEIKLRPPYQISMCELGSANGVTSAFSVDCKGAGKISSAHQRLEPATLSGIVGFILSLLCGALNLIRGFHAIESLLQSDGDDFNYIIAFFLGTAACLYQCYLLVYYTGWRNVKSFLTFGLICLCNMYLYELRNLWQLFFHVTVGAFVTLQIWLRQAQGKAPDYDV

Each target was assayed with C1CCN(C1)C(=O)NC2=CC=CC(=C2)NC3=NC=C(C(=N3)NCCC4=CN=CN4)Br (assay: log2 fold change, soluble protein after heating vs DMSO (PISA); higher = thermal stabilisation; K562 lysate, 10 uM; active = over 0.2 and 3.5 SD of the protein, either way, in both replicates (recomputed)).
In short: (§1)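 Pellets of K562 cells were dounce-homogenised in PBS pH 7.4 with 1 mM MgCl2, and the crude extract was held at 1 mg/mL protein for a 30 min treatment with 10 μM compound. Aliquots were heated for 3 min over 48°C-58°C and pooled before NP-40 was added to 0.5% at 4°C. The supernatant from 21,000xg for 90 min was quantified by TMTpro 16plex LC-MS/MS with channel sums equalised. Values are reported from duplicates as log-two fold change in thermal stability relative to solvent controls.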

log2 fold change, inactive:
SCAI isoform 2 (UniProt Q8N9R8) 0.08
SC5D (UniProt O75845) -0.028
SALL1 (UniProt Q9NSC2) -0.011
SAMD1 (UniProt Q6SPF0) -0.039
SENP7 (UniProt Q9BQF6) 0.018
SAMD9 (UniProt Q5K651) -0.106
SAGE1 (UniProt Q9NXZ1) -0.038
SCNM1 (UniProt Q9BWG6) -0.054
SAP30 (UniProt O75446) 0.011
SECISBP2 (UniProt Q96T21) -0.085

What follows are targets tested with C1CN(CCC1(CC2=CC=C(C=C2)Cl)N)C3=NC=NC4=C3C=CN4 in the same assay as above.
In short: as §1

log2 fold change, inactive:
SCAI isoform 2 (UniProt Q8N9R8) -0.169
SC5D (UniProt O75845) 0.087
SALL1 (UniProt Q9NSC2) 0.033
SAMD1 (UniProt Q6SPF0) 0.026
SENP7 (UniProt Q9BQF6) -0.093
SAMD9 (UniProt Q5K651) 0.062
SAGE1 (UniProt Q9NXZ1) -0.072
SCNM1 (UniProt Q9BWG6) -0.158
SAP30 (UniProt O75446) 0.067
SECISBP2 (UniProt Q96T21) 0.065

The targets below were run with C1COCCN1CCN2C3=CC=CC=C3N=C2NC(=O)C4=CC(=CC=C4)[N+](=O)[O-] [IRAK-1-4 Inhibitor I] in the same assay as above.
In short: as §1

log2 fold change, inactive:
SCAI isoform 2 (UniProt Q8N9R8) -0.048
SEPTIN8 (UniProt F8W8I8) 0.115
SCOC (UniProt Q9UIL1) 0.004
SAMD8 (UniProt Q96LT4) 0.043
SDR39U1 (UniProt Q9NRG7) -0.113
SAMD1 (UniProt Q6SPF0) 0.095
SDCBP isoform 2 (UniProt O00560) -0.062
SELENOM (UniProt Q8WWX9) 0.072
SEC16A isoform 2 (UniProt O15027) -0.053
SELENOO (UniProt Q9BVL4) 0.138
SENP7 (UniProt Q9BQF6) 0.014
SDC3 (UniProt O75056) 0.062
SDCCAG8 (UniProt S4R323) -0.082
SELENOW (UniProt P63302) -0.121
SAMD9 (UniProt Q5K651) 0.071
SAGE1 (UniProt Q9NXZ1) 0.064
SCNM1 (UniProt Q9BWG6) -0.021
SAP30L (UniProt Q9HAJ7) -0.185
SEC16A isoform 3 (UniProt O15027) 0.123
SEC22A (UniProt Q96IW7) -0.166
SECISBP2 (UniProt Q96T21) 0.16
SCAND1 (UniProt P57086) 0.008
